In article PMC7372886:
No constants are given. Whether binding was seen depends on the method and setting. In cells and extracts the contact can be indirect. A yes stands for co-enrichment or nearness to the bait. Other partners may have been found.

Protein sequences, listed by entry. Tags and fused reporters are not part of them.
UniProt P49327: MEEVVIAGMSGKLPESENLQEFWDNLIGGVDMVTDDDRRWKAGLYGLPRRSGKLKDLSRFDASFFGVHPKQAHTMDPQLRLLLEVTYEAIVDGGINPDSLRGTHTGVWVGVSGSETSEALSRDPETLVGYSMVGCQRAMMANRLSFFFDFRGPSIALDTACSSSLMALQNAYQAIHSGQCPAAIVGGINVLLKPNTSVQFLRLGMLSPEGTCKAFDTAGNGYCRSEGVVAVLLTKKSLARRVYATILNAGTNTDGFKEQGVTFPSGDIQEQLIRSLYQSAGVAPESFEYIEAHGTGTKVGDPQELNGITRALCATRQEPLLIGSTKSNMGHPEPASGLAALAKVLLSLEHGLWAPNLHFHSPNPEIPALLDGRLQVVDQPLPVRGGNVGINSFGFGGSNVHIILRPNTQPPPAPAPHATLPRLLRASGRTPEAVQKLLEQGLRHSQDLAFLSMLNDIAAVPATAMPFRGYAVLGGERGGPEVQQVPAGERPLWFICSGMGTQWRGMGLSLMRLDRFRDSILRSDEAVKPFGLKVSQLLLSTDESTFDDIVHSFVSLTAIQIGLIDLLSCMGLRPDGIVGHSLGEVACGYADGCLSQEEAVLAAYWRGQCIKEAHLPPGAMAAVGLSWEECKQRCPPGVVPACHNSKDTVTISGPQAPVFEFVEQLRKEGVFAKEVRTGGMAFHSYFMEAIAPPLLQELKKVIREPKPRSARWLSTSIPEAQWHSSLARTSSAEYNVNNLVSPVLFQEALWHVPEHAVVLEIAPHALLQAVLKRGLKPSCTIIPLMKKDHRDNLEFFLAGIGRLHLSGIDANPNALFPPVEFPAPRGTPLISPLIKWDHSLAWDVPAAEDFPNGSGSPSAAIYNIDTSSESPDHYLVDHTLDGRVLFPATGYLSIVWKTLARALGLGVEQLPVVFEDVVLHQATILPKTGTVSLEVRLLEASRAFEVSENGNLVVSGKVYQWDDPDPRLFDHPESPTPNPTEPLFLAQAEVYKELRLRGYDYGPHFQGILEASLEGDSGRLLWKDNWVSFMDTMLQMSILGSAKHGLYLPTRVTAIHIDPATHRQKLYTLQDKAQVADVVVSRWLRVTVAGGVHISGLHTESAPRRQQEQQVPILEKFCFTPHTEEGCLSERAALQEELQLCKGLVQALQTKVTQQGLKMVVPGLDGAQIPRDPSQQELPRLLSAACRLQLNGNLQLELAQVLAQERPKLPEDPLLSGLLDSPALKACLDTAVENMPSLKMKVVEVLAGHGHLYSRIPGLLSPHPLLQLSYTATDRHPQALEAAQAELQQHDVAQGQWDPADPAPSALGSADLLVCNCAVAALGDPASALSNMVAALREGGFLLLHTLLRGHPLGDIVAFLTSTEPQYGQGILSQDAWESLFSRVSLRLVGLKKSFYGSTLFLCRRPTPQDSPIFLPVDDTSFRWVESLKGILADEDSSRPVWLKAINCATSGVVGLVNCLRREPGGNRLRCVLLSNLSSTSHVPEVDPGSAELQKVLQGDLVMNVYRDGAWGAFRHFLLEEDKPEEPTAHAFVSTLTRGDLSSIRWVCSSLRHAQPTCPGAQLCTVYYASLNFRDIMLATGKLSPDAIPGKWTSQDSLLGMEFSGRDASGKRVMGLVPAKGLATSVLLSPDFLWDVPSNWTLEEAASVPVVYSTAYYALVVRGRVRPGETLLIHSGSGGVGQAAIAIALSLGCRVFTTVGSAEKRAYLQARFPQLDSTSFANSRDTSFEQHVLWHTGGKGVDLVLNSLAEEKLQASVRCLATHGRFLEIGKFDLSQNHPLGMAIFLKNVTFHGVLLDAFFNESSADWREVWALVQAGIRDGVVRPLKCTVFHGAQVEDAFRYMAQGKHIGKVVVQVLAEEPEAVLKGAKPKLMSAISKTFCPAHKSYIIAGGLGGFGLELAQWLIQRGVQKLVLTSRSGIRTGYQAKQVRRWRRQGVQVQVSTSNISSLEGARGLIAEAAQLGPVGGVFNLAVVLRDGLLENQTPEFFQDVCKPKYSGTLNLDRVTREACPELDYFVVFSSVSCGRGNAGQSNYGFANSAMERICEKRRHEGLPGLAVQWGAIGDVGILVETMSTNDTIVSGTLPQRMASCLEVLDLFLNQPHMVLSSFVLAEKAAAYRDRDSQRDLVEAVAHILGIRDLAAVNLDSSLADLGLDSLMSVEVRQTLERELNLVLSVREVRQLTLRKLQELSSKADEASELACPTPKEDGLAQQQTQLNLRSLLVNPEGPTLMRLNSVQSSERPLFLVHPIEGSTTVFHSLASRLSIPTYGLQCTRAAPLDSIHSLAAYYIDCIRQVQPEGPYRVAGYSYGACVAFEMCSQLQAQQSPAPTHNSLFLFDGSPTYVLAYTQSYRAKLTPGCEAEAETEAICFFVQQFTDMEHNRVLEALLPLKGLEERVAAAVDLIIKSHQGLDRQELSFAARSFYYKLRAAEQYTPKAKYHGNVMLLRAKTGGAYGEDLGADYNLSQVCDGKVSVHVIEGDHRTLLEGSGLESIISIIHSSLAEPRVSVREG

B1: Tropomodulin-1 (protein, UniProt P28289 1-359)
chain: MSYRRELEKYRDLDEDEILGALTEEELRTLENELDELDPDNALLPAGLRQKDQTTKAPTGPFKREELLDHLEKQAKEFKDREDLVPYTGEKRGKVWVPKQKPLDPVLESVTLEPELEEALANASDAELCDIAAILGMHTLMSNQQYYQALSSSSIMNKEGLNSVIKPTQYKPVPDEEPNSTDVEETLERIKNNDPKLEEVNLNNIRNIPIPTLKAYAEALKENSYVKKFSIVGTRSNDPVAYALAEMLKENKVLKTLNVESNFISGAGILRLVEALPYNTSLVEMKIDNQSQPLGNKVEMEIVSMLEKNATLLKFGYHFTQQGPRLRASNAMMNNNDLVRKRRLADLTGPIIPKCRSGV
B2: Putative RNA-binding protein 3 (protein, UniProt P98179 1-157)
chain: MSSEEGKLFVGGLNFNTDEQALEDHFSSFGPISEVVVVKDRETQRSRGFGFITFTNPEHASVAMRAMNGESLDGRQIRVDHAGKSARGTRGGGFGAHGRGRSYSRGGGDQGYGSGRYYDSRPGGYGYGYGRSRDYNGRNQGGYDRYSGGNYRDNYDN
B3: Allograft inflammatory factor 1-like (protein, UniProt Q9BQI0 1-150)
chain: MSGELSNRFQGGKAFGLLKARQERRLAEINREFLCDQKYSDEENLPEKLTAFKEKYMEFDLNNEGEIDLMSLKRMMEKLGVPKTHLEMKKMISEVTGGVSDTISYRDFVNMMLGKRSAVLKLVMMFEGKANESSPKPVGPPPERDIASLP
B4: 5′-nucleotidase (protein, UniProt P21589 27-549)
chain: WELTILHTNDVHSRLEQTSEDSSKCVNASRCMGGVARLFTKVQQIRRAEPNVLLLDAGDQYQGTIWFTVYKGAEVAHFMNALRYDAMALGNHEFDNGVEGLIEPLLKEAKFPILSANIKAKGPLASQISGLYLPYKVLPVGDEVVGIVGYTSKETPFLSNPGTNLVFEDEITALQPEVDKLKTLNVNKIIALGHSGFEMDKLIAQKVRGVDVVVGGHSNTFLYTGNPPSKEVPAGKYPFIVTSDDGRKVPVVQAYAFGKYLGYLKIEFDERGNVISSHGNPILLNSSIPEDPSIKADINKWRIKLDNYSTQELGKTIVYLDGSSQSCRFRECNMGNLICDAMINNNLRHTDEMFWNHVSMCILNGGGIRSPIDERNNGTITWENLAAVLPFGGTFDLVQLKGSTLKKAFEHSVHRYGQSTGEFLQVGGIHVVYDLSRKPGDRVVKLDVLCTKCRVPSYDPLKMDEVYKVILPNFLANGGDGFQMIKDELLRHDSGDQDINVVSTYISKMKVIYPAVEGRIKFS
B5: Adenylyltransferase and sulfurtransferase MOCS3 (protein, UniProt O95396 1-460)
chain: MASREEVLALQAEVAQREEELNSLKQKLASALLAEQEPQPERLVPVSPLPPKAALSRDEILRYSRQLVLPELGVHGQLRLGTACVLIVGCGGLGCPLAQYLAAAGVGRLGLVDYDVVEMSNLARQVLHGEALAGQAKAFSAAASLRRLNSAVECVPYTQALTPATALDLVRRYDVVADCSDNVPTRYLVNDACVLAGRPLVSASALRFEGQITVYHYDGGPCYRCIFPQPPPAETVTNCADGGVLGVVTGVLGCLQALEVLKIAAGLGPSYSGSLLLFDALRGHFRSIRLRSRRLDCAACGERPTVTDLLDYEAFCGSSATDKCRSLQLLSPEERVSVTDYKRLLDSGAFHLLLDVRPQVEVDICRLPHALHIPLKHLERRDAESLKLLKEAIWEEKQGTQEGAAVPIYVICKLGNDSQKAVKILQSLSAAQELDPLTVRDVVGGLMAWAAKIDGTFPQY
B6: CD59 glycoprotein (protein, UniProt P13987 26-102)
chain: LQCYNCPNPTADCKTAVNCSSDFDACLITKAGLQVYNKCWKFEHCNFNDVTTRLRENELTYYCCKKDLCNFNEQLEN
B7: Leucine-rich repeat and calponin homology domain-containing protein 3 (protein, UniProt Q96II8 1-777)
chain: MAAAGLVAVAAAAEYSGTVASGGNLPGVHCGPSSGAGPGFGPGSWSRSLDRALEEAAVTGVLSLSGRKLREFPRGAANHDLTDTTRADLSRNRLSEIPIEACHFVSLENLNLYQNCIRYIPEAILNLQALTFLNISRNQLSTLPVHLCNLPLKVLIASNNKLVSLPEEIGHLRHLMELDVSCNEIQTIPSQIGNLEALRDLNVRRNHLVHLPEELAELPLIRLDFSCNKITTIPVCYRNLRHLQTITLDNNPLQSPPAQICIKGKVHIFKYLNIQACKIAPDLPDYDRRPLGFGSCHEELYSSRPYGALDSGFNSVDSGDKRWSGNEPTDEFSDLPLRVAEITKEQRLRRESQYQENRGSLVVTNGGVEHDLDQIDYIDSCTAEEEEAEVRQPKGPDPDSLSSQFMAYIEQRRISHEGSPVKPVAIREFQKTEDMRRYLHQNRVPAEPSSLLSLSASHNQLSHTDLELHQRREQLVERTRREAQLAALQYEEEKIRTKQIQRDAVLDFVKQKASQSPQKQHPLLDGVDGECPFPSRRSQHTDDSALCMSLSGLNQVGCAATLPHSSAFTPLKSDDRPNALLSSPATETVHHSPAYSFPAAIQRNQPQRPESFLFRAGVRAETNKGHASPLPPSAAPTTDSTDSITGQNSRQREEELELIDQLRKHIEYRLKVSLPCDLGAALTDGVVLCHLANHVRPRSVPSIHVPSPAVPKLTMAKCRRNVENFLEACRKIGVPQEQLCLPLHILEEKGLSQVAVTVQALLELAPPKQQQHQLSAV

target: Fatty acid synthase (human (endogenous in HepG2 and SMMC7721)) (UniProt P49327); experiment: affinity purification with mass spectrometry; FASN antibody and Protein A/G agarose beads on whole cell lysates of HepG2 cells transfected with control siRNA or FASN siRNA; eluted proteins iTRAQ-labelled (114, 117 against 118, 121), Nano LC ESI MS/MS

binding, binds:
B1
B2
B3
B4
B5
B6
B7
